# Values of other authors in patent US20140171436A1, “TREATMENT OF ANTIFOLATE NEUROTOXICITY” (Syntrix Biosystems, Inc., priority 2003, published 2014).
# Target: NMDA receptor
# Conditions: read-out: Ki NMDAR; cited from earlier work
smiles,measurement,value
O=C(CCCN1CCC(O)(c2ccc(Cl)cc2)CC1)c1ccc(F)cc1 [Haloperidol],Ki,48 µM
